Data from PMC11998062.
The exact form of at least one protein or probe is not confirmed. For some assays here: A weaker result is weaker than the reference pair of the same experiment. For some assays here: At least one verdict was read from the data and is not stated in words by the source.

Key:
[1] = tested on: Max-WT M1Nle,M65Nle,M148Nle; assay: BLI; conditions: 0.1% BSA, 0.02% Tween-20, 1x PBS, 1:1 global fit, BLI: 1x PBS, protein details: C-terminal extra K
[2] = tested on: MaxS2pS11pK31AcK57Ac S2pS,S11pS,K31Ac,K57Ac,M1Nle,M65Nle,M148Nle; assay: CD; conditions: 5 uM DNA and protein 1:1, no structural stabilization with DNA; CD: same buffer; residues 1-151; protein details: C-terminal extra K
[3] = tested on: MaxK31AcK57Ac K31Ac,K57Ac,M1Nle,M65Nle,M148Nle; assay: EMSA; conditions: 1 uM DNA, 0-8 uM protein, 1 mM MgCl2, inhibition less pronounced than P2; EMSA: 10 mM MES pH 6.0, 150 mM KCl, 1 mM MgCl2, 10% glycerol, room temperature 30 min, 8% TBE gel; residues 1-151; protein details: C-terminal extra K
[4] = tested on: MaxS2pS11p S2pS,S11pS,M1Nle,M65Nle,M148Nle; assay: EMSA; conditions: 1 uM DNA, 0-8 uM protein, 1 mM MgCl2, inhibition less pronounced than P2; EMSA: 10 mM MES pH 6.0, 150 mM KCl, 1 mM MgCl2, 10% glycerol, room temperature 30 min, 8% TBE gel; residues 1-151; protein details: C-terminal extra K
[5] = tested on: MaxS2pS11pK31AcK57Ac S2pS,S11pS,K31Ac,K57Ac,M1Nle,M65Nle,M148Nle; assay: EMSA; conditions: 1 uM DNA, 0-8 uM protein, 1 mM MgCl2, very minor binding at elevated concentrations; EMSA: 10 mM MES pH 6.0, 150 mM KCl, 1 mM MgCl2, 10% glycerol, room temperature 30 min, 8% TBE gel; residues 1-151; protein details: C-terminal extra K

Row | Sequence | Kd [1] [nM] | binding result [2] | binding result [3] | binding result [4] | binding result [5]
1 | CCGGCTGACACGTGGTATTAAT (double strand) [biotinylated E-box DNA probe] | 15.3 |  |  |  | 
2 | CCGGCTGACACGTGGTATTAAT (double strand) [E-box DNA probe] |  | binds more weakly | binds more weakly | binds more weakly | binds more weakly
